Results from paper PMC5687603.
Results are given in words; binding and its absence hold for the method and conditions named. Binding seen in cells or lysates may run through a third protein. Here binding means that the protein was enriched with, or labelled near, the bait; the list need not be complete. Where a sequence is shown, tags or fusion partners need not be part of it.

Chains of the proteins cited; added tags and fusions are not shown. Residues count along the entry.
UniProt P41091: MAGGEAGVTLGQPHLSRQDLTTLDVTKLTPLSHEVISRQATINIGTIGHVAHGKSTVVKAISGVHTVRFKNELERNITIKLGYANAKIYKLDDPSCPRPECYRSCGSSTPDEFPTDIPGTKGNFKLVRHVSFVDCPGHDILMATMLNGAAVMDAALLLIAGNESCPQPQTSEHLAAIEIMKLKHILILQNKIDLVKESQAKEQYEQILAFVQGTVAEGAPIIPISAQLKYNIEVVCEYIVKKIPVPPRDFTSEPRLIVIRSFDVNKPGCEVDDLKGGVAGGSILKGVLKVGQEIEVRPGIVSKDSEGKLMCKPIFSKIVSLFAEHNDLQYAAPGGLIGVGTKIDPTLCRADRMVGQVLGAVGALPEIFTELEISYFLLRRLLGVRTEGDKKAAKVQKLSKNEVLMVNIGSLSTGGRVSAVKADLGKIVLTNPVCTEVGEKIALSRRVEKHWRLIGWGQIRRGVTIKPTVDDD
UniProt P12814: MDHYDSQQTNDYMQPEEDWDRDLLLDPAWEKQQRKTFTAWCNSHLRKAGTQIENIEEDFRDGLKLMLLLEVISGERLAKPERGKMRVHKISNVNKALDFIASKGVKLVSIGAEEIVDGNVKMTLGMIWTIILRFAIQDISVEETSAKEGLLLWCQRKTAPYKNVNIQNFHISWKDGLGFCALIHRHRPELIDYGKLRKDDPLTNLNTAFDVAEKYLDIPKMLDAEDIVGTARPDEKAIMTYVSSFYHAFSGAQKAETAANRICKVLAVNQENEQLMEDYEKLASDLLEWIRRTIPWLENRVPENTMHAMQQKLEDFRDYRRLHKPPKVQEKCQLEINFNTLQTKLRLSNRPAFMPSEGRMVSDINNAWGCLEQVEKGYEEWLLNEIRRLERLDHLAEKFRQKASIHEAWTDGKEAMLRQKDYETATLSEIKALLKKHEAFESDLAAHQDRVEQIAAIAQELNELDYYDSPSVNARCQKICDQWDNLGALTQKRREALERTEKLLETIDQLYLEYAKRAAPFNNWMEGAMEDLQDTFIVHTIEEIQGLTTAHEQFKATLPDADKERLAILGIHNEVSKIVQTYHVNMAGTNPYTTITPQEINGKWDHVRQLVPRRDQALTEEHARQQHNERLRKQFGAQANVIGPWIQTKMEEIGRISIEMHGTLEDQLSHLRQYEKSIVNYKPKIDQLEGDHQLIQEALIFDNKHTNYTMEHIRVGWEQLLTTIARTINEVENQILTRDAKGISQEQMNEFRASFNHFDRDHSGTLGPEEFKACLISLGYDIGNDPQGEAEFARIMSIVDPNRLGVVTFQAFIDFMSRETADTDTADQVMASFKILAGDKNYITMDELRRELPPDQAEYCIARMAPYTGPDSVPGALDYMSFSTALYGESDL
UniProt P11021, residues 19-654: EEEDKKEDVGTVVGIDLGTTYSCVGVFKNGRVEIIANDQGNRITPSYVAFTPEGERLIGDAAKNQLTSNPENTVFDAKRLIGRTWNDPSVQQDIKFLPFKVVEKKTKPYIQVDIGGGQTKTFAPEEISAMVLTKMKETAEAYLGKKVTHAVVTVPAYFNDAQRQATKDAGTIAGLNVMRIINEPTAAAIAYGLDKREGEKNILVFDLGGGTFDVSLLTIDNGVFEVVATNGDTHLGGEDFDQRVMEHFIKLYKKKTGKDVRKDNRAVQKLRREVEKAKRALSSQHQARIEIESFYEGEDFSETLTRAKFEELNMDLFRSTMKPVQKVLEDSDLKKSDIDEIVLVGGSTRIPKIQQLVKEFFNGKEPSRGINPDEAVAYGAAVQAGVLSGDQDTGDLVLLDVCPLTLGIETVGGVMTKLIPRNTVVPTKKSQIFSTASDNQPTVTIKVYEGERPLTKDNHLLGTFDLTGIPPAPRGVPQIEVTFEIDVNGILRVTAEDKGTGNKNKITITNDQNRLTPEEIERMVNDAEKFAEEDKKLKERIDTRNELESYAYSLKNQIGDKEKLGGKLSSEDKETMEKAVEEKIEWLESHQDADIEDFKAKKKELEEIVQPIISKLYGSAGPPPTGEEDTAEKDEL
UniProt O60884: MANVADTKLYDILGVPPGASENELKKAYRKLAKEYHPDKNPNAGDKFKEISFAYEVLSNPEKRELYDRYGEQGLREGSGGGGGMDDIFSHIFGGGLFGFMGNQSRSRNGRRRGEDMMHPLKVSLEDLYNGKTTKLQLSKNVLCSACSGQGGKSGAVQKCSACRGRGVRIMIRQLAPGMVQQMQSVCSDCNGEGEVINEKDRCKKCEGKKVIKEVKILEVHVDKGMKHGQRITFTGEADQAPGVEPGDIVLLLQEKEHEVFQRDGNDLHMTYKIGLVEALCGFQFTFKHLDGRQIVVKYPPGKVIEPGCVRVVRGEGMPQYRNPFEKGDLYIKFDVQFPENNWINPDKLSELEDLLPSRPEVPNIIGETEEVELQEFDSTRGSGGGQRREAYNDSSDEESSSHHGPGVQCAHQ
UniProt P35579: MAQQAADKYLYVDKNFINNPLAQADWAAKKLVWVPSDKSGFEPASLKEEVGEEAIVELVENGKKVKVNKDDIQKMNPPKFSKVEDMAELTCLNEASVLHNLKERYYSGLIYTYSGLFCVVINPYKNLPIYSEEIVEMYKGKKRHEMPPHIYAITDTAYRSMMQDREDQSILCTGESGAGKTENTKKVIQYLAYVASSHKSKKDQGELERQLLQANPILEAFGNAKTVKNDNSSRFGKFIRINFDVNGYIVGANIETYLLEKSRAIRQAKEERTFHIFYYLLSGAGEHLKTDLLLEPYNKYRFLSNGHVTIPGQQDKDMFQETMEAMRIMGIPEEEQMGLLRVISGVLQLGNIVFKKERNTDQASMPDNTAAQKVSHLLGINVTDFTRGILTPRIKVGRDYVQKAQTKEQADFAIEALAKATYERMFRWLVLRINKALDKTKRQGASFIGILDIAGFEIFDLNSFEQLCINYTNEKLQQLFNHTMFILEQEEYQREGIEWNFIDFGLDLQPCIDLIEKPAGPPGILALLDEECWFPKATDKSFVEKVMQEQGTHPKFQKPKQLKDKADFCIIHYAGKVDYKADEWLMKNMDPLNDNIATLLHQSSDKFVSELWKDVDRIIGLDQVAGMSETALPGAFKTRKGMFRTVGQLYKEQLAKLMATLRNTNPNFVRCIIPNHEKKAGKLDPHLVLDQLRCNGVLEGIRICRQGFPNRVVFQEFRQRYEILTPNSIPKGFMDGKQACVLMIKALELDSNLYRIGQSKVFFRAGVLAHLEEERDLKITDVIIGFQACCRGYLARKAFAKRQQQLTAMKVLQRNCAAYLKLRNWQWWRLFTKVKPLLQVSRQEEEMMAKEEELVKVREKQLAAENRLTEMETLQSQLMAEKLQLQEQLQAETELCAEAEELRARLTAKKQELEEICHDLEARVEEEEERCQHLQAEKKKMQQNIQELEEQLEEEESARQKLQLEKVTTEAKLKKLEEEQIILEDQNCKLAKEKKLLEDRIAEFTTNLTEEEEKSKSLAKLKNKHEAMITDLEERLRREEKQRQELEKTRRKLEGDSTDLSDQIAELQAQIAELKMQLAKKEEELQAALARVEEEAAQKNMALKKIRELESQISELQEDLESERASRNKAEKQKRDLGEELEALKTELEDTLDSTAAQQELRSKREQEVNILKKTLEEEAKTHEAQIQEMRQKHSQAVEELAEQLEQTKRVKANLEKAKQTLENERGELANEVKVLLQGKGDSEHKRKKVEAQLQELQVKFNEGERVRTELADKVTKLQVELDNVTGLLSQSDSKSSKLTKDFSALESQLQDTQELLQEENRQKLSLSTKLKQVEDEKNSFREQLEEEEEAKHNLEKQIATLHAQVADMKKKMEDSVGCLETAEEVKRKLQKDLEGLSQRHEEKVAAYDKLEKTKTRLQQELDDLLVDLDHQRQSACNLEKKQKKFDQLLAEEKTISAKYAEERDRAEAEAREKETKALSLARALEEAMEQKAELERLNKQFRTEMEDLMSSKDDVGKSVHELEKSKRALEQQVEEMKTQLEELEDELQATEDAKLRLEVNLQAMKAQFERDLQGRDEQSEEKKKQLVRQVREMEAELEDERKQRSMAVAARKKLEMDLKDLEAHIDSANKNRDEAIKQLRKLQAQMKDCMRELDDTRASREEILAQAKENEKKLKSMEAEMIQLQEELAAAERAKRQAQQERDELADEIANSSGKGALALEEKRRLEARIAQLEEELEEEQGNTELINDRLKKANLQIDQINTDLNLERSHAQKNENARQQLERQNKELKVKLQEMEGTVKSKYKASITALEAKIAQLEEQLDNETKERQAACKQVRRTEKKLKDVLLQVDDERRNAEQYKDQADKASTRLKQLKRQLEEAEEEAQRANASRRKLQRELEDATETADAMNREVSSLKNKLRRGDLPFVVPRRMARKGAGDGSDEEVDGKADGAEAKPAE
UniProt P08758: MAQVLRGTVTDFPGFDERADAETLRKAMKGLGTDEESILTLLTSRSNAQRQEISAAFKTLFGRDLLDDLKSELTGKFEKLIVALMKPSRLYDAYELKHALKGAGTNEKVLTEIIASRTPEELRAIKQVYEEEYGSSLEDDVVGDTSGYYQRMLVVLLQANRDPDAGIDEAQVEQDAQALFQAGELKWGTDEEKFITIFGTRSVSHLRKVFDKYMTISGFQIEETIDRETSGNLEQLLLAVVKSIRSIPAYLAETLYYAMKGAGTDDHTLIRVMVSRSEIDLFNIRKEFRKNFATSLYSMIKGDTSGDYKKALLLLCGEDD
UniProt Q9ULV4: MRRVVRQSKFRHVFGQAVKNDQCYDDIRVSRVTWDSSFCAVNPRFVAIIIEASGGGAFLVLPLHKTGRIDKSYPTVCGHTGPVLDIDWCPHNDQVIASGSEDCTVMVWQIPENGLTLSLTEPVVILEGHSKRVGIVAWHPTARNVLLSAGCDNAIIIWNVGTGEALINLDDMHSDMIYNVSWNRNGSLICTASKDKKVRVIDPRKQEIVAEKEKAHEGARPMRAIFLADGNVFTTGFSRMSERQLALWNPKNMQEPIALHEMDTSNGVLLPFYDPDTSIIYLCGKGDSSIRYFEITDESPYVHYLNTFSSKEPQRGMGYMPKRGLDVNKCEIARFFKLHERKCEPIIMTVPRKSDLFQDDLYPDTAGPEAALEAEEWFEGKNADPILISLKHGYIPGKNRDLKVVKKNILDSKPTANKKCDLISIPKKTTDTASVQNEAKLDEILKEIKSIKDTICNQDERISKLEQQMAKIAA
UniProt P26641: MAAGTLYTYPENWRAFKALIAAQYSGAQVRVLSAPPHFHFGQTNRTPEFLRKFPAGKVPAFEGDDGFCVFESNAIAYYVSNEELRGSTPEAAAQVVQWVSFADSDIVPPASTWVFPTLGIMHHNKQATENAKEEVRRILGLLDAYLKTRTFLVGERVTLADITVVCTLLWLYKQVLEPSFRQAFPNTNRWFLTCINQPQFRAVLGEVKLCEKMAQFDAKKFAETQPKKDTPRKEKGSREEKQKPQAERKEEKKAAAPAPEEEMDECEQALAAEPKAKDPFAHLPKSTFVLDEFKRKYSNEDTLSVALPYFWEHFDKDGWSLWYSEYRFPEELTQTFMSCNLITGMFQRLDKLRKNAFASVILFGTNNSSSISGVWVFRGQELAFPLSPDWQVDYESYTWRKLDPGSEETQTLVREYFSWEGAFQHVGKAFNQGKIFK
UniProt O43707: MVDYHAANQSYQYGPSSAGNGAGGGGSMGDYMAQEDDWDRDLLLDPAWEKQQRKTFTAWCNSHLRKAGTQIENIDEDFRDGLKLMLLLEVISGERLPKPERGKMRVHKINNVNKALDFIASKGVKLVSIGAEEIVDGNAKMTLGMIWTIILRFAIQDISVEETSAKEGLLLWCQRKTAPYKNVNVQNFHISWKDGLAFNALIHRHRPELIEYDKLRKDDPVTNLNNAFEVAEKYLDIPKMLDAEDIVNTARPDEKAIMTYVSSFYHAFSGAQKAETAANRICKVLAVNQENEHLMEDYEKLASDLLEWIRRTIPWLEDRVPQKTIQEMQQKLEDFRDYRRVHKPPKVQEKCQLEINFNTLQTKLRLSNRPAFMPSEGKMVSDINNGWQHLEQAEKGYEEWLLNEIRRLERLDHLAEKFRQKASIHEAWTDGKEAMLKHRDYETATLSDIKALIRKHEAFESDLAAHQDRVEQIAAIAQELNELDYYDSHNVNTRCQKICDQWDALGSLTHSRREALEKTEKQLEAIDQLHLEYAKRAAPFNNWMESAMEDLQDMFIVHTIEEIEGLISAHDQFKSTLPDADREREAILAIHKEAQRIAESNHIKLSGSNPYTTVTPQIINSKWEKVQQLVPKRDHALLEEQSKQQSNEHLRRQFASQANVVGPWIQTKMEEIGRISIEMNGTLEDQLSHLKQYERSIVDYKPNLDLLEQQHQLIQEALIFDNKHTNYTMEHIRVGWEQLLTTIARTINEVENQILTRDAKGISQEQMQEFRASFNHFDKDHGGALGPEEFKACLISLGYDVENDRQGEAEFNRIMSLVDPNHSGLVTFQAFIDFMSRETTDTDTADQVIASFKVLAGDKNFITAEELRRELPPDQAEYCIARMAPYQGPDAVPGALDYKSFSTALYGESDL

Target: T1, recombinant mouse short-form Klotho with C-terminal Flag and 6xHis (HEK293) (mouse) (UniProt O35082)
T1 sequence (chain, N-glycosylated at N161, N285 and N346): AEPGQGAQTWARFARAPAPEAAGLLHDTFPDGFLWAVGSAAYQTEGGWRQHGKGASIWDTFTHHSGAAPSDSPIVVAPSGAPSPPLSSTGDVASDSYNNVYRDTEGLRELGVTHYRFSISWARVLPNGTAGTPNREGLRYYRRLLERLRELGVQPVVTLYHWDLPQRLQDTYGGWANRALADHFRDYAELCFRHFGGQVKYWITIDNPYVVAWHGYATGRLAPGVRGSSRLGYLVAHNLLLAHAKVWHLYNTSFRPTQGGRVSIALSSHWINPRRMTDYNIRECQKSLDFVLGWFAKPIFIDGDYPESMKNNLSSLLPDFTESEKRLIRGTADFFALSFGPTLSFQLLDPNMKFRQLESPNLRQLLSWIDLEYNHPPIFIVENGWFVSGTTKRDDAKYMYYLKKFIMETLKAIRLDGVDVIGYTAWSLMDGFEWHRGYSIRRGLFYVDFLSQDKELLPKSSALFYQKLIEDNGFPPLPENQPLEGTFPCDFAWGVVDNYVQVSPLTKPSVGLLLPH
Test: affinity purification with mass spectrometry; lysates of HEK293 cells expressing Skl-Flag-6xHis, Klotho or Flag antibody on IP-Direct beads, low-pH elution, SDS-PAGE, in-gel trypsin digest, nano-LC-nano-ESI MS/MS, Mascot search of Swiss-Prot; compared with control cells

With “26S protease regulatory subunit 6B (from UniProt P43686 1-418)” the binding was “binds”.

In the case of “Eukaryotic translation initiation factor 2 subunit 3 (from UniProt P41091 1-472)”, the binding is reported as “binds”.

In the case of Myosin-10 (from UniProt P35580 1-1976), the binding is reported as “binds”.

With “Probable ATP-dependent RNA helicase DDX5 (from UniProt P17844 1-614)” the binding was “binds”.

In the case of “X-ray repair cross-complementing protein 5 (from UniProt P13010 1-732)”, the binding is reported as “binds”.

For “Alpha-actinin-1 (from UniProt P12814 1-892)”, the binding was “binds”.

In the case of “Spectrin beta chain, non-erythrocytic 1 (from UniProt Q01082 1-2364)”, the binding is reported as “binds”.

For “78 kDa glucose-regulated protein (from UniProt P11021 19-654)”, the binding was “binds”.

For “DnaJ homolog subfamily A member 2 (from UniProt O60884 1-412)”, the binding was “binds”.

With “60 kDa heat shock protein, mitochondrial (from UniProt P10809 27-573)” the binding was “binds”.

With “Ras GTPase-activating-like protein IQGAP1 (from UniProt P46940 1-1657)” the binding was “binds”.

With Myosin-9 (from UniProt P35579 1-1960) the binding was “binds”.

In the case of Annexin A5 (from UniProt P08758 1-320), the binding is reported as “binds”.

In the case of Coronin-1C (from UniProt Q9ULV4 1-474), the binding is reported as “binds”.

For “Eukaryotic translation initiation factor 3 subunit G (from UniProt O75821 1-320)”, the binding was “binds”.

With “Elongation factor 1-gamma (from UniProt P26641 1-437)” the binding was “binds”.

In the case of “Alpha-actinin-4 (from UniProt O43707 1-911)”, the binding is reported as “binds”.

“Spectrin alpha chain, non-erythrocytic 1 (from UniProt Q13813 1-2472)” was tested, and the binding was “binds”.

“Polyadenylate-binding protein 1 (from UniProt P11940 1-636)” was tested, and the binding was “binds”.

For “Replication protein A 70 kDa DNA-binding subunit (from UniProt P27694 1-616)”, the binding was “binds”.

“POTE ankyrin domain family member E (from UniProt Q6S8J3 1-1075)” was tested, and the binding was “binds”.

B1: tRNA-splicing ligase RtcB homolog (protein, UniProt Q9Y3I0 1-505)
chain: MSRSYNDELQFLEKINKNCWRIKKGFVPNMQVEGVFYVNDALEKLMFEELRNACRGGGVGGFLPAMKQIGNVAALPGIVHRSIGLPDVHSGYGFAIGNMAAFDMNDPEAVVSPGGVGFDINCGVRLLRTNLDESDVQPVKEQLAQAMFDHIPVGVGSKGVIPMNAKDLEEALEMGVDWSLREGYAWAEDKEHCEEYGRMLQADPNKVSARAKKRGLPQLGTLGAGNHYAEIQVVDEIFNEYAAKKMGIDHKGQVCVMIHSGSRGLGHQVATDALVAMEKAMKRDKIIVNDRQLACARIASPEGQDYLKGMAAAGNYAWVNRSSMTFLTRQAFAKVFNTTPDDLDLHVIYDVSHNIAKVEQHVVDGKERTLLVHRKGSTRAFPPHHPLIAVDYQLTGQPVLIGGTMGTCSYVLTGTEQGMTETFGTTCHGAGRALSRAKSRRNLDFQDVLDKLADMGIAIRVASPKLVMEEAPESYKNVTDVVNTCHDAGISKKAIKLRPIAVIKG
With B1 the binding was “binds”.

B2: Non-POU domain-containing octamer-binding protein (protein, UniProt Q15233 1-471)
chain: MQSNKTFNLEKQNHTPRKHHQHHHQQQHHQQQQQQPPPPPIPANGQQASSQNEGLTIDLKNFRKPGEKTFTQRSRLFVGNLPPDITEEEMRKLFEKYGKAGEVFIHKDKGFGFIRLETRTLAEIAKVELDNMPLRGKQLRVRFACHSASLTVRNLPQYVSNELLEEAFSVFGQVERAVVIVDDRGRPSGKGIVEFSGKPAARKALDRCSEGSFLLTTFPRPVTVEPMDQLDDEEGLPEKLVIKNQQFHKEREQPPRFAQPGSFEYEYAMRWKALIEMEKQQQDQVDRNIKEAREKLEMEMEAARHEHQVMLMRQDLMRRQEELRRMEELHNQEVQKRKQLELRQEEERRRREEEMRRQQEEMMRRQQEGFKGTFPDAREQEIRMGQMAMGGAMGINNRGAMPPAPVPAGTPAPPGPATMMPDGTLGLTPPTTERFGQAATMEGIGAIGGTPPAFNRAAPGAEFAPNKRRRY
For B2, the binding was “binds”.

B3: Plastin-3 (protein, UniProt P13797 1-630)
chain: MDEMATTQISKDELDELKEAFAKVDLNSNGFICDYELHELFKEANMPLPGYKVREIIQKLMLDGDRNKDGKISFDEFVYIFQEVKSSDIAKTFRKAINRKEGICALGGTSELSSEGTQHSYSEEEKYAFVNWINKALENDPDCRHVIPMNPNTDDLFKAVGDGIVLCKMINLSVPDTIDERAINKKKLTPFIIQENLNLALNSASAIGCHVVNIGAEDLRAGKPHLVLGLLWQIIKIGLFADIELSRNEALAALLRDGETLEELMKLSPEELLLRWANFHLENSGWQKINNFSADIKDSKAYFHLLNQIAPKGQKEGEPRIDINMSGFNETDDLKRAESMLQQADKLGCRQFVTPADVVSGNPKLNLAFVANLFNKYPALTKPENQDIDWTLLEGETREERTFRNWMNSLGVNPHVNHLYADLQDALVILQLYERIKVPVDWSKVNKPPYPKLGANMKKLENCNYAVELGKHPAKFSLVGIGGQDLNDGNQTLTLALVWQLMRRYTLNVLEDLGDGQKANDDIIVNWVNRTLSEAGKSTSIQSFKDKTISSSLAVVDLIDAIQPGCINYDLVKSGNLTEDDKHNNAKYAVSMARRIGARVYALPEDLVEVKPKMVMTVFACLMGRGMKRV
With B3 the binding was “binds”.

B4: EF-hand domain-containing protein D1 (protein, UniProt Q9BUP0 1-239)
chain: MASEELACKLERRLRREEAEESGPQLAPLGAPAPEPKPEPEPPARAPTASADAELSAQLSRRLDINEGAARPRRCRVFNPYTEFPEFSRRLIKDLESMFKLYDAGRDGFIDLMELKLMMEKLGAPQTHLGLKSMIKEVDEDFDGKLSFREFLLIFHKAAAGELQEDSGLMALAKLSEIDVALEGVKGAKNFFEAKVQALSSASKFEAELKAEQDERKREEEERRLRQAAFQKLKANFNT
In the case of B4, the binding is reported as “binds”.

B5: Heterogeneous nuclear ribonucleoprotein D-like (protein, UniProt O14979 1-420)
chain: MEVPPRLSHVPPPLFPSAPATLASRSLSHWRPRPPRQLAPLLPSLAPSSARQGARRAQRHVTAQQPSRLAGGAAIKGGRRRRPDLFRRHFKSSSIQRSAAAAAATRTARQHPPADSSVTMEDMNEYSNIEEFAEGSKINASKNQQDDGKMFIGGLSWDTSKKDLTEYLSRFGEVVDCTIKTDPVTGRSRGFGFVLFKDAASVDKVLELKEHKLDGKLIDPKRAKALKGKEPPKKVFVGGLSPDTSEEQIKEYFGAFGEIENIELPMDTKTNERRGFCFITYTDEEPVKKLLESRYHQIGSGKCEIKVAQPKEVYRQQQQQQKGGRGAAAGGRGGTRGRGRGQGQNWNQGFNNYYDQGYGNYNSAYGGDQNYSGYGGYDYTGYNYGNYGYGQGYADYSGQQSTYGKASRGGGNHQNNYQPY
In the case of B5, the binding is reported as “binds”.

B6: Heterogeneous nuclear ribonucleoprotein M (protein, UniProt P52272 1-730)
chain: MAAGVEAAAEVAATEIKMEEESGAPGVPSGNGAPGPKGEGERPAQNEKRKEKNIKRGGNRFEPYANPTKRYRAFITNIPFDVKWQSLKDLVKEKVGEVTYVELLMDAEGKSRGCAVVEFKMEESMKKAAEVLNKHSLSGRPLKVKEDPDGEHARRAMQKVMATTGGMGMGPGGPGMITIPPSILNNPNIPNEIIHALQAGRLGSTVFVANLDYKVGWKKLKEVFSMAGVVVRADILEDKDGKSRGIGTVTFEQSIEAVQAISMFNGQLLFDRPMHVKMDERALPKGDFFPPERPQQLPHGLGGIGMGLGPGGQPIDANHLNKGIGMGNIGPAGMGMEGIGFGINKMGGMEGPFGGGMENMGRFGSGMNMGRINEILSNALKRGEIIAKQGGGGGGGSVPGIERMGPGIDRLGGAGMERMGAGLGHGMDRVGSEIERMGLVMDRMGSVERMGSGIERMGPLGLDHMASSIERMGQTMERIGSGVERMGAGMGFGLERMAAPIDRVGQTIERMGSGVERMGPAIERMGLSMERMVPAGMGAGLERMGPVMDRMATGLERMGANNLERMGLERMGANSLERMGLERMGANSLERMGPAMGPALGAGIERMGLAMGGGGGASFDRAIEMERGNFGGSFAGSFGGAGGHAPGVARKACQIFVRNLPFDFTWKMLKDKFNECGHVLYADIKMENGKSKGCGVVKFESPEVAERACRMMNGMKLSGREIDVRIDRNA
In the case of B6, the binding is reported as “binds”.

B7: UPF0568 protein C14orf166 (protein, UniProt Q9Y224 1-244)
chain: MFRRKLTALDYHNPAGFNCKDETEFRNFIVWLEDQKIRHYKIEDRGNLRNIHSSDWPKFFEKYLRDVNCPFKIQDRQEAIDWLLGLAVRLEYGDNAEKYKDLVPDNSKTADNATKNAEPLINLDVNNPDFKAGVMALANLLQIQRHDDYLVMLKAIRILVQERLTQDAVAKANQTKEGLPVALDKHILGFDTGDAVLNEAAQILRLLHIEELRELQTKINEAIVAVQAIIADPKTDHRLGKVGR
With B7 the binding was “binds”.

B8: Peroxiredoxin-6 (protein, UniProt P30041 1-224)
chain: MPGGLLLGDVAPNFEANTTVGRIRFHDFLGDSWGILFSHPRDFTPVCTTELGRAAKLAPEFAKRNVKLIALSIDSVEDHLAWSKDINAYNCEEPTEKLPFPIIDDRNRELAILLGMLDPAEKDEKGMPVTARVVFVFGPDKKLKLSILYPATTGRNFDEILRVVISLQLTAEKRVATPVDWKDGDSVMVLPTIPEEEAKKLFPKGVFTKELPSGKKYLRYTPQP
In the case of B8, the binding is reported as “binds”.
